This continues a long series; more values of the same kind are listed elsewhere. Where a SMILES comes first, the peptide text is derived from it. Bridges are numbered along the chain shown (N, C = ends). [ ]: non-standard residue; d: D form. The star is where a group is joined. Heptanoyl(5-Me) = CCC(C)CCCC(=O)*; Dab = NCC[C@H](N)C(=O)O
Columns and labels:
Conditions in all cases: growth mode: biofilm, 24 h; exposure time: 24 h
colistin [1] = compound: T1, CCC(C)CCCC(=O)N[C@@H](CCN)C(=O)N[C@H](C(=O)N[C@@H](CCN)C(=O)N[C@H]1CCNC(=O)[C@H]([C@@H](C)O)NC(=O)[C@H](CCN)NC(=O)[C@H](CCN)NC(=O)[C@H](CC(C)C)NC(=O)[C@@H](CC(C)C)NC(=O)[C@H](CCN)NC1=O)[C@@H](C)O [colistin]; assay: minimum concentration of killing, 1-log CFU reduction of biofilm (MCK90); higher = more biofilm tolerance
Method: (§1)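 Clinical P. aeruginosa isolates were grown as static biofilms for 24 h at 37 °C in LB in half-area 96-well plates, then exposed for 24 h to colistin at 1, 4, 16, 64, 256 or […]. Surviving CFU were counted by spotting serial dilutions. MCK is the lowest tested concentration giving the stated log reduction in CFU versus an untreated control; '>1024' means the reduction was not reached at the top dose, and 1 is the lowest dose tested (≤1).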

tobramycin [2] = compound: T2, NC[C@H]1O[C@H](O[C@H]2[C@H](O)[C@@H](O[C@H]3O[C@H](CO)[C@@H](O)[C@H](N)[C@H]3O)[C@H](N)C[C@@H]2N)[C@H](N)C[C@@H]1O [tobramycin]; assay: minimum concentration of killing, 2-log CFU reduction of biofilm (MCK99); higher = more biofilm tolerance
Method: as §1, with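 “tobramycin” for “colistin”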

colistin [3] = compound: T1, colistin; assay: minimum concentration eradicating biofilm below detection limit (MCK-E); higher = more biofilm tolerance
Method: as §1

colistin [4] = compound: T1, colistin; assay: minimum concentration of killing, 2-log CFU reduction of biofilm (MCK99); higher = more biofilm tolerance
Method: as §1

colistin [5] = compound: T1, colistin; assay: minimum concentration of killing, 4-log CFU reduction of biofilm (MCK99.99); higher = more biofilm tolerance
Method: as §1

tobramycin [6] = compound: T2, tobramycin; assay: as above
Method: as §1, with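 “tobramycin” for “colistin”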

tobramycin [7] = compound: T2, tobramycin; assay: minimum concentration of killing, 1-log CFU reduction of biofilm (MCK90); higher = more biofilm tolerance
Method: as §1, with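 “tobramycin” for “colistin”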

tobramycin [8] = compound: T2, tobramycin; assay: minimum concentration eradicating biofilm below detection limit (MCK-E); higher = more biofilm tolerance
Method: as §1, with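 “tobramycin” for “colistin”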

| Test System | minimum concentration of killing (colistin [1]) | minimum concentration of killing (tobramycin [2]) | minimum concentration eradicating biofilm below detection limit (colistin [3]) | minimum concentration of killing (colistin [4]) | minimum concentration of killing (colistin [5]) | minimum concentration of killing (tobramycin [6]) | minimum concentration of killing (tobramycin [7]) | minimum concentration eradicating biofilm below detection limit (tobramycin [8]) |
| --- | --- | --- | --- | --- | --- | --- | --- | --- |
| Pseudomonas aeruginosa clinical isolate ZG302431 | 256 µg/mL | 16 µg/mL | 256 µg/mL | 256 µg/mL | 256 µg/mL | 64 µg/mL | 4 µg/mL | 256 µg/mL |
| Pseudomonas aeruginosa clinical isolate ZG302432 | 64 µg/mL | 4 µg/mL | 256 µg/mL | 64 µg/mL | 256 µg/mL | 256 µg/mL | 4 µg/mL | 256 µg/mL |
| Pseudomonas aeruginosa clinical isolate ZG302442 | 64 µg/mL | 256 µg/mL | 256 µg/mL | 256 µg/mL | 256 µg/mL | 256 µg/mL | 256 µg/mL | 256 µg/mL |
| Pseudomonas aeruginosa clinical isolate ZG302451 | 64 µg/mL | 4 µg/mL | 256 µg/mL | 256 µg/mL | 256 µg/mL | 256 µg/mL | 4 µg/mL | 256 µg/mL |
| Pseudomonas aeruginosa clinical isolate ZG314696 | 64 µg/mL | 4 µg/mL | 256 µg/mL | 64 µg/mL | 256 µg/mL | 64 µg/mL | 4 µg/mL | 256 µg/mL |
| Pseudomonas aeruginosa clinical isolate ZG314738 | 256 µg/mL | 64 µg/mL | 256 µg/mL | 256 µg/mL | 256 µg/mL | 64 µg/mL | 64 µg/mL | 256 µg/mL |
| Pseudomonas aeruginosa clinical isolate ZG314777 | 64 µg/mL | 16 µg/mL | 256 µg/mL | 64 µg/mL | 256 µg/mL | 64 µg/mL | 16 µg/mL | 64 µg/mL |
| Pseudomonas aeruginosa clinical isolate ZG316694 | 256 µg/mL | 4 µg/mL | 256 µg/mL | 256 µg/mL | 256 µg/mL | 64 µg/mL | ≤ 1 µg/mL | 64 µg/mL |
| Pseudomonas aeruginosa clinical isolate ZG316704 | 256 µg/mL | 16 µg/mL | 256 µg/mL | 256 µg/mL | 256 µg/mL | 256 µg/mL | 4 µg/mL | 256 µg/mL |
| Pseudomonas aeruginosa clinical isolate ZG316716 | 64 µg/mL | 4 µg/mL | 256 µg/mL | 64 µg/mL | 256 µg/mL | 4 µg/mL | ≤ 1 µg/mL | 64 µg/mL |
| Pseudomonas aeruginosa clinical isolate ZG316717 | 16 µg/mL | 16 µg/mL | 1020 µg/mL | 64 µg/mL | 256 µg/mL | 64 µg/mL | 16 µg/mL | 1020 µg/mL |
| Pseudomonas aeruginosa clinical isolate ZG316722 | 256 µg/mL | 16 µg/mL | 256 µg/mL | 256 µg/mL | 256 µg/mL | 256 µg/mL | 4 µg/mL | 256 µg/mL |
| Pseudomonas aeruginosa clinical isolate ZG02488718 | 64 µg/mL | 4 µg/mL | 256 µg/mL | 64 µg/mL | 256 µg/mL | 256 µg/mL | ≤ 1 µg/mL | 256 µg/mL |
| Pseudomonas aeruginosa clinical isolate ZG02512057 | 64 µg/mL | 16 µg/mL | 64 µg/mL | 64 µg/mL | 64 µg/mL | 256 µg/mL | 16 µg/mL | 1020 µg/mL |
| Pseudomonas aeruginosa clinical isolate ZG5003493 | 16 µg/mL | 4 µg/mL | 256 µg/mL | 64 µg/mL | 256 µg/mL | 64 µg/mL | ≤ 1 µg/mL | 1020 µg/mL |
| Pseudomonas aeruginosa clinical isolate ZG8510487 | 64 µg/mL | 256 µg/mL | 256 µg/mL | 256 µg/mL | 256 µg/mL | 1020 µg/mL | 16 µg/mL | > 1020 µg/mL |
| Pseudomonas aeruginosa clinical isolate ZG8038581181 | 64 µg/mL | 256 µg/mL | 256 µg/mL | 256 µg/mL | 256 µg/mL | 1020 µg/mL | 16 µg/mL | 1020 µg/mL |
